Results from PMC4813464.
No constants are given. Whether binding was seen depends on the method and setting. Some binding calls cover weakened binding; strength is not graded here. Where a sequence is shown, tags or fusion partners need not be part of it.

Protein sequences, listed by entry. Tags and fused reporters are not part of them.
UniProt P04258: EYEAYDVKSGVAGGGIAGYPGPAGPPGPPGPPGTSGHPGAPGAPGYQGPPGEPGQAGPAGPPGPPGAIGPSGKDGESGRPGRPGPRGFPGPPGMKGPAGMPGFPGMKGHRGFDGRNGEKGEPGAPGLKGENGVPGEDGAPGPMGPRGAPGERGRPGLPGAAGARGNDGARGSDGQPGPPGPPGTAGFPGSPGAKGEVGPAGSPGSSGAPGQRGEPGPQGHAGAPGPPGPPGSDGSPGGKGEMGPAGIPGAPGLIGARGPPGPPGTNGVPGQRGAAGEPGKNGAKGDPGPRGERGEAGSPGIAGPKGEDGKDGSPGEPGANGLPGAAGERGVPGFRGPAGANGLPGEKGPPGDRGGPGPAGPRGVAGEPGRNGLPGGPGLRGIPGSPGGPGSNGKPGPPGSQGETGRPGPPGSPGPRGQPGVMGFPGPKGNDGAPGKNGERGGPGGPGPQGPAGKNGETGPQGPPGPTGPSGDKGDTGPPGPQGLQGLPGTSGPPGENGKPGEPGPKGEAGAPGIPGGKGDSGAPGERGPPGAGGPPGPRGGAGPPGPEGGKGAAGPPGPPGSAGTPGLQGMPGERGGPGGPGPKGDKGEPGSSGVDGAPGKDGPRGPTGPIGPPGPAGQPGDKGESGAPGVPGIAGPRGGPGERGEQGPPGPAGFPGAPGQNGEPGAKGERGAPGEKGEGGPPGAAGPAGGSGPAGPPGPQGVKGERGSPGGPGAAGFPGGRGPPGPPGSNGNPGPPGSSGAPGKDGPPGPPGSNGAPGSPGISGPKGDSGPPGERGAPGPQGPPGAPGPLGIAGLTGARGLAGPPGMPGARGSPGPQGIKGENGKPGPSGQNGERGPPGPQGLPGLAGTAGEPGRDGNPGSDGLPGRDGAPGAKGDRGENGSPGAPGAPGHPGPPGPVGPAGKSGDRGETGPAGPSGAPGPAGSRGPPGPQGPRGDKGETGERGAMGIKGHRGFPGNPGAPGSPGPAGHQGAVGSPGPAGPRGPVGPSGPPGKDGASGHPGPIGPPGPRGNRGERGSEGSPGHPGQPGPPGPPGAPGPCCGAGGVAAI

Key:
[1] = biological target: Collagen type III, pepsin-extracted from bovine skin (bovine) (UniProt P04258); assay: ELISA; competitive solid-phase binding assay: bovine collagen type III coated at 10 μg/ml; DDR-Fc at 3 μg/ml (43 nM) pre-incubated 1 h at room temperature with collagen samples at 0, 0.3, 1.3, 5 and 10 μM, then 3 h on the plate; anti-Fc detection, A450; both purified
[2] = biological target: Triple-helical peptide GPC(GPP)5-GPRGQOGVMGFP-(GPP)5GPC-NH2 (human); assay: ELISA; solid-phase binding assay: triple-helical peptides coated at 10 μg/ml on 96-well plates; DDR1-Fc or DDR2-Fc added for 3 h; anti-human Fc-HRP detection, A492; one-site fit; both purified
[3] = biological target: Triple-helical peptide GPC(GPP)5-GPRGQOGVMGFO-(GPP)5GPC-NH2 (human); assay: as above
[4] = biological target: Triple-helical peptide GPC(GPP)5-…O-(GPP)5GPC-NH2 (human); assay: as above

Measured: binding

B1: DDR2-Fc (recombinant human discoidin domain receptor 2 ectodomain, Fc-tagged) (Fc fusion, UniProt Q16832 22-399)
chain: KAQVNPAICRYPLGMSGGQIPDEDITASSQWSESTAAKYGRLDSEEGDGAWCPEIPVEPDDLKEFLQIDLHTLHFITLVGTQGRHAGGHGIEFAPMYKINYSRDGTRWISWRNRHGKQVLDGNSNPYDIFLKDLEPPIVARFVRFIPVTDHSMNVCMRVELYGCVWLDGLVSYNAPAGQQFVLPGGSIIYLNDSVYDGAVGYSMTEGLGQLTDGVSGLDDFTQTHEYHVWPGYDYVGWRNESATNGYIEIMFEFDRIRNFTTMKVHCNNMFAKGVKIFKEVQCYFRSEASEWEPNAISFPLVLDDVNPSARFVTVPLHHRMASAIKCQYHFADTWMMFSEITFQSDAAMYNNSEALPTSPMAPTTYDPMLKVDDSNTR
binds: [1] | [2] | [3] | [4]
